For assay [1], the target named is Myc-Vps34 (UniProt Q8NEB9). As to the kind of experiment: anti-Flag immunoprecipitation from HEK293 cells, Western blot. A general note: Immunoblotting shows a protein as a band on a membrane.
Assay [2] addresses Myc-Vps34 (UniProt Q8NEB9). Briefly: told with the kinase assay of Example 2-2; binding from the fragment immunoprecipitation.

Amino acid sequences for entries named in this document (tags omitted). A change or cut given only in a name is not applied to a line headed by its entry.
UniProt Q8NEB9: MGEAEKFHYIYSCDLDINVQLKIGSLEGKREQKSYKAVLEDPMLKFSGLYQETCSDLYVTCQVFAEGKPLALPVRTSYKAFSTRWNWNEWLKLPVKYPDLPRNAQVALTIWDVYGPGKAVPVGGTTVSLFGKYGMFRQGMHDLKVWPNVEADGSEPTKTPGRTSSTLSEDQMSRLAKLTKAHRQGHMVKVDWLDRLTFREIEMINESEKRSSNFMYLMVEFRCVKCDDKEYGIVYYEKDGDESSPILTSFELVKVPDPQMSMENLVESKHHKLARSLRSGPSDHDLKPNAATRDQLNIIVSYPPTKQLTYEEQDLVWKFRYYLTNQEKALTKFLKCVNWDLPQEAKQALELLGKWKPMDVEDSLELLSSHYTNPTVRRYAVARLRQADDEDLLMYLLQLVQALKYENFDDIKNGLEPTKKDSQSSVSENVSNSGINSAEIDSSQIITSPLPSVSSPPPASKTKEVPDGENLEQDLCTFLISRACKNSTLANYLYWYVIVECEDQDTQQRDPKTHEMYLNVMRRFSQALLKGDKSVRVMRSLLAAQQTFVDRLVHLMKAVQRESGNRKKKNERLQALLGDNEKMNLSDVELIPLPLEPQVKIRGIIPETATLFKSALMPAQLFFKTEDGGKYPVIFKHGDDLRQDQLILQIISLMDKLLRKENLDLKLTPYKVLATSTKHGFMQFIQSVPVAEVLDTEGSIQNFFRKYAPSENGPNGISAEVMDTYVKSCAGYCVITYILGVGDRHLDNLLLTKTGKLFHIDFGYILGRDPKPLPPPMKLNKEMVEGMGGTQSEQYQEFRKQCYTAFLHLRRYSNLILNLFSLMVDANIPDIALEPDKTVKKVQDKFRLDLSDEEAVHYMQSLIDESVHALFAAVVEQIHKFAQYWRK
UniProt Q9P2J5: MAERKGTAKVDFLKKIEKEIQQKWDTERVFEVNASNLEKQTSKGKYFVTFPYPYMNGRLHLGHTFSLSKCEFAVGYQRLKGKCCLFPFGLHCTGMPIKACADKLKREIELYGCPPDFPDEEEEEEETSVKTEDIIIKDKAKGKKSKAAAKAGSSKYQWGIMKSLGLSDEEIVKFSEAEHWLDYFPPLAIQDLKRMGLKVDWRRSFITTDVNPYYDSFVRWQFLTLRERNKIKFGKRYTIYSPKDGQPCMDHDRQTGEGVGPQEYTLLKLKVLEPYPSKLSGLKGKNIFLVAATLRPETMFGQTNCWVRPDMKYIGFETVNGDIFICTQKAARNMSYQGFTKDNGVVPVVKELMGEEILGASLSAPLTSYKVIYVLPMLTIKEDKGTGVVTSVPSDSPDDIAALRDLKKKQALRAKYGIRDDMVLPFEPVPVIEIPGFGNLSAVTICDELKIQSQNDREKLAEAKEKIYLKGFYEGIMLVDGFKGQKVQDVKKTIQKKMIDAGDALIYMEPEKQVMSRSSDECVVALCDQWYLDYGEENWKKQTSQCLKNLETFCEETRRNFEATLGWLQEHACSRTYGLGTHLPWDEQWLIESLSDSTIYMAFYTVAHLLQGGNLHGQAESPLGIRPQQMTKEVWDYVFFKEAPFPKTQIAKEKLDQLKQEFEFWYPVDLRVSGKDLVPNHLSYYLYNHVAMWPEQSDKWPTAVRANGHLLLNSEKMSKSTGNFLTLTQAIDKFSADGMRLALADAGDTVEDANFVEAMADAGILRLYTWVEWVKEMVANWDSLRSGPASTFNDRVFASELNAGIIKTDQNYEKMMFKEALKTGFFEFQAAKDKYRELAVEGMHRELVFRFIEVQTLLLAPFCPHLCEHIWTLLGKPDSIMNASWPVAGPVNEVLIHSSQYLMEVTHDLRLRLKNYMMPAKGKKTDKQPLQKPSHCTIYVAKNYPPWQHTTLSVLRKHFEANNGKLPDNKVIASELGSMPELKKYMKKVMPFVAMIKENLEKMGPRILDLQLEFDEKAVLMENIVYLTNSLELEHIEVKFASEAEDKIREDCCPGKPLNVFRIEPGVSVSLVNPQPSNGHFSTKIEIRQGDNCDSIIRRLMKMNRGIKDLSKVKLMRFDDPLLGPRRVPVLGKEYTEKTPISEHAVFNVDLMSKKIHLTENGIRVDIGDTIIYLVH

Here are results for four substances from patent US20200155655A1.

These are yes or no findings as the source states them, for the method shown. Some binding calls cover weakened binding; strength is not graded here.

For the substance “Flag-LRS 361-720 amino acid fragment (from UniProt Q9P2J5 361-720) (enzyme)”, the binding entry with Myc-Vps34 [1] is on record as “binds”. The same measure, in the same setting: to “Flag-LRS F50A/Y52A (from UniProt Q9P2J5 1-1176) (enzyme)” belongs “binds”.

Regarding “Flag-LRS wild type (WT) (from UniProt Q9P2J5 1-1176) (enzyme)”, in the assay with Myc-Vps34 [1], the binding entry is recorded as “binds”.

Take “LRS 1-976 amino acid fragment (from UniProt Q9P2J5 1-976) (enzyme)”: the binding result with Myc-Vps34 [2] is on record as “binds”.
